We go through one molecule from patent US20090053196A1.

No constants are given. Whether binding was seen depends on the method and setting. In cells and extracts the contact can be indirect. Some results given as binding are weak or reduced against the parent protein; the word gives no strength. Tags and fused reporters may be left off the sequences shown.

This experiment addresses T1, GST-CHN-1 (Caenorhabditis elegans).
T1 sequence: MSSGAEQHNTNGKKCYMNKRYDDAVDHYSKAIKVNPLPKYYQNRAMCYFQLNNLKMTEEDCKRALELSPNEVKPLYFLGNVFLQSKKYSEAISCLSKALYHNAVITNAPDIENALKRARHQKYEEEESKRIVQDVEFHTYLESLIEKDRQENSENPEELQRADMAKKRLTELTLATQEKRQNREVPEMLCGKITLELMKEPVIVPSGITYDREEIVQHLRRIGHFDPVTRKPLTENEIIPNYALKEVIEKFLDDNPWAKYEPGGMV
The experiment in a line: GST pull-down in the reverse format, data not shown.

B1: myc-tagged UFD-2 (^mycUFD-2) (enzyme, Caenorhabditis elegans, UniProt Q09349 1-984, looked up, not shown: small tags and cut ends)
chain: MIEDEKAGLQPMDISDASVFFFQADVESKDFLTSLFDCEGKSDDRMLRYADAIIDVQNLNFDVSPQCLQSNIAEIITKFVLLSQDGSRRGLSRSFNFIDPDIIAGCREEDAIEFLLINFVRCHHELGKSGTSNCYKKTLESTRKAVFSVFVMIQRGYLESQLRSQHASLVFTKRLLEDTVSNVFLRTLVEYLASTDECDEDAITETFNPIFGILRSGIICQRFEDNKDEIVRQILRVMNLLLSIRLPSNGPRPLSNLLVNREDFLPTPSEKIQGREFGLMSFLGPFFSYGLESSARRPNHRVFVDCEEDARKYDGSVNTEQKLYFQRMDPIRTMLHQLMLPLASDQGSRNKTLRWIATIISTNDIRTRSHYDPSDVLCDHYMTNFLSVMYMFSEKIDLSKIIVDYPFLPSSLINISKETRLKMDESGAVAFASQFADRPDEYHFSTVCFFLTIAAQRLVIPPLMNQISEYSRHLKELKHKINALKEKLNTVSGFERAEVEKKLNYETEHWKLMSRHLLCVKTQAQDPALMASSMDFVDKQMKFILNLLCDNLDLLGDDSQLPTEVSQMFCALPEYFLEDALDFYIFAISNGMKLLMERNADWISRLTVLFTQYHYIKSPFLVSKLVRVLSSIQPPLWFNVVRLRMAQENLLMCMIKFYSDFEDNGDFYEKFNVRGNIQYMLEKMEEDMFYKGKFMDMARECGAEFIRFVNMVINDATWCIDESLSGLKSIHDVEKKMANKVEWDNTDQEIRNQDLGVYEEAKRKVKGWLGTAKSNLKLLLSITVNSPEPFRTPVLGERLAAMLNHNLSQLIGSKASELKVKDPRSYGWEPREFVSLLISIYLKLNMPAFVKYIAYDERTYSPEFFHNAIECMRKNSIVGFSQLESFEHLAEDVKKEYEAKAELEEEYDDVPEEFKDPIMDAIMVDPVKLPSGHVMDRAVIERHLLSTPNNPFNRAPLSHNELSPDSELKAKIQEWICQKRNSKK
With B1, the binding entry is “binds”.
